Reference: PubChem BioAssay (NCATS)
This list was built around the results that the source calls inconclusive (neither active nor inactive); the mix of calls is not that of the screen. Potencies of inconclusive entries are doubtful fits and often do not repeat. Calls of active or inactive are those of the source. Calls follow the shape of the dose curve; as a rule, active = well fitted curve in the direction sought with a large enough effect; inconclusive = small, poorly fitted or top-dose-only effect, or another doubt; inactive = no such curve, though single readings can be large; an effect the other way counts as inactive or inconclusive.

Assay: Identifying Small Molecule Inhibitors of Pancreatic Cancer Stem Cells (Panc1, Spheroid) (AID 1259359);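 also: compound exposure lasted 48 h before reading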
Conditions: Panc1 spheroid cancer stem cell viability; series mostly up to 46.1 µM
Summary of the method: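 Luminescent ATP readout (CellTiter-Glo) quantifies surviving cells after a 48 h drug incubation. Normalization uses DMSO wells as no inhibition and media-only wells as full inhibition; bortezomib served as positive control.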
Potency is read from the fitted curve at half-maximal effect.

| Compound | Potency |
| --- | --- |
| Cc1cc2c(C(C)C)c(O)c(O)c(C=O)c2c(O)c1-c1c(C)cc2c(C(C)C)c(O)c(O)c(C=O)c2c1O | inconclusive: 13.2 µM [cytotoxic, partial curve, poor fit] |
| Cc1cc(SCc2sc(-c3ccc(C(F)(F)F)cc3)nc2C)ccc1OCC(=O)O | inconclusive: 0.935 µM [cytotoxic, full curve, poor fit] |
| C[C@@H](N)C1CCC(C(=O)Nc2ccncc2)CC1 (stereo partly specified) | inconclusive: 0.0662 µM [rising, full curve, poor fit] |
| Clc1ccc(Nc2nnc(Cc3ccncc3)c3ccccc23)cc1 | inconclusive: 0.001 µM [cytotoxic] |
| Cc1ccc(S(=O)(=O)Nc2cc(Cl)ccc2C(=O)Nc2nc(-c3ccccc3)cs2)cc1 | inconclusive: 2.35 µM [cytotoxic, full curve] |
| CC(C)Oc1cc(Nc2nc(N[C@@H](C)c3ccc(F)cn3)ncc2Cl)[nH]n1 | inconclusive: 33.2 µM [cytotoxic, single point] |
| CN1CC[C@@H](c2c(O)cc(O)c3c(=O)cc(-c4ccccc4Cl)oc23)[C@@H](O)C1 | active: 0.132 µM |
| COc1cc2c(Oc3ccc4[nH]c(C)cc4c3F)ncnc2cc1OCCCN1CCCC1 | inconclusive: 16.6 µM [cytotoxic, partial curve, poor fit] |
| COC(=O)c1ccc2c(C(=Nc3ccc(N(C)C(=O)CN4CCN(C)CC4)cc3)c3ccccc3)c(O)[nH]c2c1 | active: 13.2 µM |
| CCn1c(-c2nonc2N)nc2cnc(Oc3cccc(NC(=O)c4ccc(OCCN5CCOCC5)cc4)c3)cc21 | inconclusive: 2.96 µM [cytotoxic, full curve, poor fit] |
| CCc1cc(Nc2nccc(-c3c(-c4ccc(OC)c(C(=O)Nc5c(F)cccc5F)c4)nc4ccccn34)n2)c(OC)cc1N1CCC(N2CCN(S(C)(=O)=O)CC2)CC1 | inconclusive: 0.235 µM [cytotoxic, full curve, poor fit] |
| Cc1nn(Cc2ccccc2Cl)c(C)c1CN(C)CC(O)COc1ccc(Cl)cc1 (stereo unspecified) | inconclusive: 0.0059 µM [cytotoxic, full curve, poor fit] |
| Cc1nc2cnc3ccc(C#Cc4cccnc4)cc3c2n1-c1ccc(C(C)(C)C#N)cc1 | active: 18.7 µM |
| CCN(CC)CCCCNc1ncc2cc(-c3cc(OC)cc(OC)c3)c(NC(=O)NC(C)(C)C)nc2n1 | active: 18.7 µM |
| CCC(C)(C)C(=O)O[C@H]1C[C@@H](C)C=C2C=C[C@H](C)[C@H](CC[C@@H]3C[C@@H](O)CC(=O)O3)[C@H]21 | inactive |
| O=C(c1cc(Cc2n[nH]c(=O)c3ccccc23)ccc1F)N1CCN(C(=O)C2CC2)CC1 | inconclusive: 0.0012 µM [rising, full curve, poor fit] |

Assay: Identifying Small Molecule Inhibitors of Pancreatic Cancer Stem Cells (SN12C, Spheroid) (AID 1259360)
Conditions: Potency: SN12C spheroid viability; series mostly up to 46.1 µM
Summary of the method: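 Spheroids grown 14 days in stem cell media on hydrogel-coated nonadherent plates; 2D lines seeded directly. Compounds added after 4 h attachment, 48 h at 37C, 5% CO2; CellTiter-Glo luminescence normalized to DMSO (no inhibition) and no-cell wells (full inhibition).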

| Compound | Potency |
| --- | --- |
| Cc1ccc(C(N)=O)cc1Nc1nccc(-c2cn(C(C)C)c3cnccc23)n1 | inconclusive: 29.6 µM [cytotoxic, single point] |
| CC(C)C[C@H](NC(=O)[C@@H](O)[C@H](N)Cc1ccccc1)C(=O)O | inactive |
| CC[C@@H]1C(=O)N(C)c2cnc(Nc3ccc(C(=O)NC4CCN(C)CC4)cc3OC)nc2N1C1CCCC1 | inconclusive: 33.2 µM [cytotoxic, single point] |
| C[C@@H](Oc1cc(-c2cnn(C3CCNCC3)c2)cnc1N)c1c(Cl)ccc(F)c1Cl | active: 20.9 µM |
| Cc1ccc(C(=O)N(CCCN)[C@@H](c2nc3cc(Cl)ccc3c(=O)n2Cc2ccccc2)C(C)C)cc1 | inconclusive: 33.2 µM [cytotoxic, single point] |
| OCCn1cc(-c2cnc3nnn(Cc4ccc5ncccc5c4)c3n2)cn1 | inconclusive: 26.4 µM [cytotoxic, partial curve, poor fit] |
| COc1ccccc1[C@H](c1cccc2ccccc12)[C@@](C)(C#N)C(=O)N1CCC(c2cccc(C(F)(F)F)c2)CC1 | inactive |
| Cc1cc2c(C(C)C)c(O)c(O)c(C=O)c2c(O)c1-c1c(C)cc2c(C(C)C)c(O)c(O)c(C=O)c2c1O | inconclusive: 33.2 µM [cytotoxic, single point] |
| Cc1cc(SCc2sc(-c3ccc(C(F)(F)F)cc3)nc2C)ccc1OCC(=O)O | inactive |
| Clc1ccc(Nc2nnc(Cc3ccncc3)c3ccccc23)cc1 | inconclusive: 0.0047 µM [rising, full curve, poor fit] |
| Cc1ccc(S(=O)(=O)Nc2cc(Cl)ccc2C(=O)Nc2nc(-c3ccccc3)cs2)cc1 | inconclusive: 3.32 µM [cytotoxic, partial curve] |
| CC(C)Oc1cc(Nc2nc(N[C@@H](C)c3ccc(F)cn3)ncc2Cl)[nH]n1 | inconclusive: 23.5 µM [cytotoxic, partial curve] |
| CN1CC[C@@H](c2c(O)cc(O)c3c(=O)cc(-c4ccccc4Cl)oc23)[C@@H](O)C1 | active: 0.118 µM |
| COc1cc2c(Oc3ccc4[nH]c(C)cc4c3F)ncnc2cc1OCCCN1CCCC1 | inconclusive: 33.2 µM [cytotoxic, single point] |
| COC(=O)c1ccc2c(C(=Nc3ccc(N(C)C(=O)CN4CCN(C)CC4)cc3)c3ccccc3)c(O)[nH]c2c1 | active: 18.7 µM |
| CCn1c(-c2nonc2N)nc2cnc(Oc3cccc(NC(=O)c4ccc(OCCN5CCOCC5)cc4)c3)cc21 | inconclusive: 26.4 µM [cytotoxic, single point] |
| CCc1cc(Nc2nccc(-c3c(-c4ccc(OC)c(C(=O)Nc5c(F)cccc5F)c4)nc4ccccn34)n2)c(OC)cc1N1CCC(N2CCN(S(C)(=O)=O)CC2)CC1 | inactive |
| Cc1nc2cnc3ccc(C#Cc4cccnc4)cc3c2n1-c1ccc(C(C)(C)C#N)cc1 | inconclusive: 0.418 µM [cytotoxic, full curve] |
| CCN(CC)CCCCNc1ncc2cc(-c3cc(OC)cc(OC)c3)c(NC(=O)NC(C)(C)C)nc2n1 | inconclusive: 26.4 µM [cytotoxic, single point] |
| CCC(C)(C)C(=O)O[C@H]1C[C@@H](C)C=C2C=C[C@H](C)[C@H](CC[C@@H]3C[C@@H](O)CC(=O)O3)[C@H]21 | inactive |
